PubChem BioAssay AID504834 (National Center for Advancing Translational Sciences (NCATS), 2011)
About 22,000 (6.9%) of roughly 320,000 compounds were called active. Inconclusive results, whose numbers are uncertain, are shown with a selection of clear calls. The call rests on the fitted dose curve; in most records, active means well fitted inhibition curve with a large enough effect; inconclusive means small, poorly fitted or top-dose-only effect, or another doubt; inactive means no such curve, though single readings can be large or run the other way. Where the call is inconclusive, the potency comes from a doubtful curve fit.
Potency means the concentration at half of the fitted maximal effect.

Assay: Primary qHTS for delayed death inhibitors of the malarial parasite plastid, 96 hour incubation
Settings: P. falciparum luciferase reporter growth; series mostly up to 28.7 µM
In short: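 P. falciparum expressing integrated firefly luciferase grown in erythrocytes (2% hematocrit, 0.05% parasitemia final) with compounds for 96 hours at 37 C, 5% CO2. Growth inhibition read as loss of luminescence after adding luciferase detection reagent.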
With CCn1c(C)nnc1SCC(=O)Nc1ccccc1OC the Potency was inconclusive: 10.4 µM [inhibitor, single point].
With O=C(CCN1C(=O)C2C3C=CC(C3)C2C1=O)N1CC(=O)N(CCc2ccccc2)C(=O)C1 (stereo unspecified) the Potency was inconclusive: 10.4 µM [inhibitor, single point].
For Cc1cc(Cl)ccc1OCCCC(=O)Nc1ccc(S(=O)(=O)Nc2ncccn2)cc1, the Potency was “inactive”.
With CN1C(=O)c2oc3ccccc3c(=O)c2C1c1ccncc1 (stereo unspecified) the Potency was “inactive”.
For O=C1NCCN(Cc2ccoc2)C1CC(=O)N(Cc1ccccc1)CC1CCC1 (stereo unspecified), the Potency was inconclusive: 0.294 µM [inhibitor, full curve, poor fit].
For CCc1ccc(/C=C2\SC(=S)N(CCCC(=O)Nc3nccs3)C2=O)cc1, the Potency was inconclusive: 18.5 µM [inhibitor, single point].
With O=C(O)c1ccccc1-c1ccccc1C(=O)NNc1ccccc1 the Potency was inconclusive: 11.7 µM [inhibitor, single point].
In the case of CC1(C)CC(=O)C(CCC(=O)c2ccccc2)C(C)(C)N1 (stereo unspecified), the Potency is reported as “inactive”.
With CCC(C)NC(=O)c1c(F)c(F)c(F)c(F)c1F (stereo unspecified) the Potency was “inactive”.
In the case of Cc1ncsc1CCOC(=O)c1ccc(Cl)cc1, the Potency is reported as “inactive”.
With O=C(CNS(=O)(=O)c1ccccc1)OCC(=O)c1cccc([N+](=O)[O-])c1 the Potency was inconclusive: 0.294 µM [inhibitor, full curve].
With COc1ccc(CNC(=O)c2noc(C(C)C)c2[N+](=O)[O-])cc1 the Potency was active: 1.85 µM.
In the case of Cc1onc(-c2c(Cl)cccc2Cl)c1C(=O)N=S(C)(=O)c1ccccc1 (stereo unspecified), the Potency is reported as active: 10.4 µM.
In the case of COc1ccc(CC(=O)OCC(=O)NCc2ccc(Cl)cc2)cc1, the Potency is reported as inconclusive: 4.65 µM [inhibitor, partial curve, poor fit].
In the case of CN(/N=C/c1ccncc1)c1cnc2ccccc2n1, the Potency is reported as inconclusive: 6.57 µM [inhibitor, partial curve].
With C=CCSc1nc2sc3c(c2c(=O)n1CC)CCC3 the Potency was inconclusive: 14.7 µM [inhibitor, partial curve].
In the case of Cc1cc(-c2ccccc2C(=O)Nc2ccccc2O)on1, the Potency is reported as “inactive”.
For COc1cc(N(C(=O)Cc2cccs2)C(C(=O)NC2CCCCC2)c2cccc(OC)c2OC)ccc1-n1cnnn1 (stereo unspecified), the Potency was “inactive”.
In the case of CCOc1ccc(N/C=C/C(=O)c2cc(OC)c(OC)c(OC)c2)cc1, the Potency is reported as “inactive”.
With COc1ccccc1Nc1cc(C(=O)NC2CCCC2)c2ccccc2n1 the Potency was inconclusive: 18.5 µM [inhibitor, single point].
In the case of O=S(=O)(c1cc(F)ccc1F)N1CCC2(CC1)OCCN2S(=O)(=O)c1cccs1, the Potency is reported as inconclusive: 9.28 µM [inhibitor, partial curve, poor fit].
For Cc1cccc(C)c1N(CC(=O)N1CCCC1)S(C)(=O)=O, the Potency was inconclusive: 18.5 µM [inhibitor, single point].
With S=C1Cc2ccccc2C(c2ccc(Cl)cc2)N1 (stereo unspecified) the Potency was “inactive”.
With CC1CCCCN1C(=O)CCn1c(=S)oc2ccccc21 (stereo unspecified) the Potency was inconclusive: 0.415 µM [inhibitor, partial curve, poor fit].
With O=C(OCCN(C1=NS(=O)(=O)c2ccccc21)c1ccc(Cl)cc1)c1ccco1 the Potency was inconclusive: 13.1 µM [inhibitor, single point].
For Cc1c(Cl)cccc1NC(=O)CNC(=O)CCS(=O)(=O)c1ccc(F)cc1, the Potency was inconclusive: 13.1 µM [inhibitor, single point].
With O=C1CC(C(=O)N2CCN(S(=O)(=O)c3cccc(F)c3)CC2)CN1Cc1ccccc1Cl (stereo unspecified) the Potency was inconclusive: 18.5 µM [inhibitor, single point].
For CCOC(=O)[C@@H]1[C@H]2COc3ccc(Br)cc3[C@H]2N2C(=O)N(c3ccc(F)cc3)C(=O)[C@]12C, the Potency was inconclusive: 10.4 µM [inhibitor, single point].
With O=[N+]([O-])c1ccc(N2CCN(CCOc3nonc3-c3ccccc3)CC2)c(Cl)c1 the Potency was inconclusive: 18.5 µM [inhibitor, single point].
With COc1cccc(OCc2cc(C(=O)N3CCC(C(O)C(C)C)CC3)no2)c1 (stereo unspecified) the Potency was inconclusive: 14.7 µM [inhibitor, single point].
With CCN(CC)c1ccc(N=Cc2ccc([N+](=O)[O-])o2)cc1 the Potency was active: 2.94 µM.
With COc1ccccc1-c1coc2c(CN3CCCC(C)C3)c(O)ccc2c1=O (stereo unspecified) the Potency was “inactive”.
For Cc1cccc(NC(=S)NCCc2ccccc2)c1C, the Potency was inconclusive: 2.08 µM [inhibitor, partial curve, poor fit].
In the case of S=C(c1ccc(-c2ccccc2)o1)N1CCCCC1, the Potency is reported as inconclusive: 14.7 µM [inhibitor, single point].
For O=C(COC(=O)c1ccc(CO)cc1)c1ccc(S(=O)(=O)N2CCCCC2)cc1, the Potency was inconclusive: 18.5 µM [inhibitor, single point].
For Cc1c(C)c2ccc(OCC(=O)N3CC[C@@]4(O)CCCC[C@H]4C3)cc2oc1=O, the Potency was inconclusive: 0.294 µM [inhibitor, full curve, poor fit].
With COCCNC(=O)C1Cc2c(ccc3ccccc23)O1 (stereo unspecified) the Potency was “inactive”.
For COc1ccccc1NS(=O)(=O)c1cccc(C(=O)N/N=C2\CC(=O)CC(C)(C)C2)c1, the Potency was inconclusive: 4.15 µM [inhibitor, single point].
With CCn1c(-c2ccccc2)csc1=Nc1ccc(S(=O)(=O)O)cc1 the Potency was “inactive”.
In the case of C/C(=N\NC(=O)c1c(Cl)c(C)nn1C)c1cccc(NC(=O)COc2ccccc2)c1, the Potency is reported as inconclusive: 0.294 µM [inhibitor, full curve, poor fit].
With CCOc1cc(/C=C2/C(=N)N3OC(C)=CC3=NC2=O)ccc1OCCOc1ccccc1 the Potency was “inactive”.
In the case of N#Cc1cccc(NC(=O)CC2CCCC2)c1, the Potency is reported as “inactive”.
For Cn1cc(CCC(=O)N2CCCC(CCC(=O)NCc3ccc(F)c(F)c3)C2)cn1 (stereo unspecified), the Potency was “inactive”.
For Cn1c(=O)c2c(ncn2CC(=O)N/N=C/c2cn[nH]c2-c2ccc(F)cc2)n(C)c1=O, the Potency was inconclusive: 13.1 µM [inhibitor, single point].
For CCc1nc(N2CCN(C(=O)c3ccco3)CC2)c2oc3ccccc3c2n1, the Potency was inconclusive: 11.7 µM [inhibitor, partial curve].
With Cc1ccc2cc(CN(Cc3nnnn3C3CCCC3)C3CCCCC3)c(=O)[nH]c2c1C the Potency was inconclusive: 10.4 µM [inhibitor, single point].
For CCO[C@H]1OC(C(=O)NCc2ccccc2)=C[C@@H](c2ccccc2)[C@@H]1CCCO, the Potency was inconclusive: 9.28 µM [inhibitor, single point].
For Cc1ccc2nc(-c3ccc(NC(=O)CSc4nc(N)cc(=O)[nH]4)cc3)sc2c1, the Potency was “inactive”.
In the case of CCc1nnc(NC(=O)CSc2nnc3c(n2)[nH]c2ccccc23)s1, the Potency is reported as inconclusive: 18.5 µM [inhibitor, single point].
In the case of O=C(c1ccc(-c2cccc(C(F)(F)F)c2)o1)N1CCCC(C(F)(F)F)C1 (stereo unspecified), the Potency is reported as inconclusive: 13.1 µM [inhibitor, single point].
For CN1C(=O)C(=Cc2ccc(OCC(=O)Nc3ccccc3)cc2)C(=O)N(C)C1=O, the Potency was “inactive”.
With COc1ccc(OC)c(NC(=O)CCN2CCN(c3ccccc3)CC2)c1 the Potency was inconclusive: 7.38 µM [inhibitor, partial curve, poor fit].
For Cn1c(=O)c2c(nc(SCC(=O)NCC3CCCO3)n2Cc2ccc(F)cc2)n(C)c1=O (stereo unspecified), the Potency was “inactive”.
In the case of CCSc1nnc(-c2ccccc2NC(C)=O)c(=O)[nH]1, the Potency is reported as inconclusive: 18.5 µM [inhibitor, single point].
For CCN(CC)/C(=N\S(=O)(=O)c1ccccc1C)c1ccccc1, the Potency was “inactive”.
With Cc1cc(C(=O)CSc2nc3ccc(Cl)cc3[nH]2)c(C)n1CC1CCCO1 (stereo unspecified) the Potency was inconclusive: 13.1 µM [inhibitor, single point].
With COc1ccccc1CCC(=O)Nc1nccs1 the Potency was “inactive”.
For COc1ccc2cc(C(=O)NCc3ccco3)c(=O)oc2c1, the Potency was active: 13.1 µM.
For CCOC(=O)c1ccc(CN(Cc2ccc(C)cc2)S(=O)(=O)c2cccc([N+](=O)[O-])c2)cc1, the Potency was inconclusive: 3.7 µM [inhibitor, partial curve, poor fit].
For CCN1C(=NCCOC)N[C@@H](c2ccccc2)[C@H](C(=O)OC)[C@H]1C, the Potency was “inactive”.
For COc1ccc(-c2nc3ccccc3nc2-c2ccc(OC)cc2)cc1, the Potency was “inactive”.
For C[N+](C)(C)CCOC(=O)C(O)(c1ccccc1)c1ccccc1, the Potency was active: 10.7 µM.
For COc1ccc(CNC(=O)C2CCCN(c3nccc(C)n3)C2)cc1 (stereo unspecified), the Potency was “inactive”.
For CCCCSc1nc(C)[nH]c1[N+](=O)[O-], the Potency was inconclusive: 18.5 µM [inhibitor, single point].
In the case of O=C(CNC(=O)c1ccccc1)OC(C(=O)Nc1cc(C(F)(F)F)ccc1Cl)c1ccccc1 (stereo unspecified), the Potency is reported as active: 13.1 µM.
For CCCCNc1c(-c2cccc(-c3cc(C(C)=O)cs3)c2)nc2ccc(C)cn12, the Potency was inconclusive: 18.5 µM [inhibitor, single point].
For COC(=O)c1cc2ccccc2c(-c2c(O)ccc3ccccc23)c1O, the Potency was inconclusive: 9.28 µM [inhibitor, single point].
In the case of Cc1ccc(N2C(=O)C3ON(c4ccccc4)C(c4ccncc4)C3C2=O)c(C)c1 (stereo unspecified), the Potency is reported as inconclusive: 16.5 µM [inhibitor, single point].
For COc1cc(OC)cc(C(=O)N[C@H](C(=O)Nc2cccc(S(=O)(=O)N3CCCC3)c2)C(C)C)c1, the Potency was inconclusive: 4.15 µM [inhibitor, partial curve, poor fit].
In the case of CCCCCCCCCCS(=O)(=O)N/N=C/c1ccc(O)cc1, the Potency is reported as “inactive”.
With CCCCc1cc(=O)oc2cc(C)cc(OC(C)C(=O)NCc3ccncc3)c12 (stereo unspecified) the Potency was inconclusive: 16.5 µM [inhibitor, single point].
